Data source: PubChem BioAssay AID1259424 (University of Nebraska Medical Center, 2018)

Purpose: 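Find knockdowns that reproduce the expression shifts seen after KSR1 loss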 (primary screen)
System: human HCT116 colon cancer cells
Reagents: siRNA pool against human genes, 50 nM
Measured: 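Log2 levels of six mRNAs (branched-DNA multiplex), adjusted by two reference genes and the non-targeting median, then scored against the average KSR1 knockdown pattern as Pearson r and euclidean distance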
Scale: mean correlation with KSR1 profile and KSR1 correlation: higher = expression change more like KSR1 knockdown; mean distance from KSR1 profile: higher = expression change less like KSR1 knockdown
Shown is an unselected part of about 14,000 deposited reagents. 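Higher correlation or smaller distance means closer resemblance to KSR1 loss; control wells, including KSR1 knockdowns, recur on many plates.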 Not stated in the record: the time to read-out.

mean correlation with KSR1 profile	mean distance from KSR1 profile	KSR1 correlation, replicate 1	KSR1 correlation, replicate 2	KSR1 correlation, replicate 3	target
0.241	1.33	0.396	-0.106	0.428	AVIL (GeneID 10677)
-0.0661	2.02	0.382	0.000689	-0.158	SHOX (GeneID 6473)
-0.0583	6.38	-0.0163	-0.167	0.451	SYNJ2BP (GeneID 55333)
-0.0358	4.42	0.238	0.248	-0.591	PRKAG3 (GeneID 53632)
-0.442	3.15	-0.463	-0.554	-0.367	C5orf22 (GeneID 55322)
0.624	2.29	0.113	0.568	0.743	CPT2 (GeneID 1376)
0.214	1.99	0.381	0.0985	0.156	LRP1B (GeneID 53353)
0.641	1.04	-0.0189	0.656	0.458	RAD17 (GeneID 5884)
0.516	2.6	0.43	0.431	0.666	SAA2 (GeneID 6289)
-0.412	1.89	-0.335	-0.4	-0.238	XPO1 (GeneID 7514)
-0.0302	1.58	-0.0649	-0.0943	0.085	IFNA6 (GeneID 3443)
0.163	1.52	0.056	-0.148	0.278	MAP1B (GeneID 4131)
-0.361	2.55	-0.138	-0.466	-0.483	CUL7 (GeneID 9820)
0.878	2.2	0.728	0.948	0.719	BLTP2 (GeneID 9703)
-0.589	1.57	-0.599	-0.695	-0.6	DAB1 (GeneID 1600)
0.656	0.674	0.707	0.533	0.789	SLC35E2A (GeneID 9906)
0.83	1.24	0.951	0.765	0.652	PIK3C2G (GeneID 5288)
-0.201	3.1	-0.112	-0.298	-0.232	CACNG2 (GeneID 10369)
0.401	4.03	0.358	0.418	0.246	FBXO30 (GeneID 84085)
0.447	3.26	0.492	0.533	0.276	NR5A2 (GeneID 2494)
-0.566	2.77	-0.648	-0.592	-0.608	HPGDS (GeneID 27306)
-0.381	1.87	-0.522	-0.32	-0.303	RAD52 (GeneID 5893)
0.252	2.06	0.269	0.239	0.181	CYP3A7 (GeneID 1551)
0.131	2.56	0.342	-0.00678	0.0458	CD226 (GeneID 10666)
0.134	1.53	-0.161	0.407	-0.0462	RUNX1T1 (GeneID 862)
0.33	1.42	0.286	0.253	0.415	MSTN (GeneID 2660)
0.307	1.48	0.26	0.328	0.304	CARS1 (GeneID 833)
-0.468	2.09	-0.494	-0.468	-0.525	PDE6D (GeneID 5147)
0.193	1.23	0.161	0.0788	0.292	RPL38 (GeneID 6169)
0.135	2.47	0.272	-0.0324	0.229	CENPQ (GeneID 55166)
-0.516	3.23	-0.32	-0.729	-0.611	COX7C (GeneID 1350)
0.603	1.78	0.553	0.539	0.531	ZC3H12A (GeneID 80149)
-0.379	5.48	-0.498	-0.476	-0.384	HAUS1 (GeneID 115106)
-0.265	1.78	-0.12	-0.291	-0.334	PLEKHA3 (GeneID 65977)
0.483	2.35	0.36	0.332	0.429	COG3 (GeneID 83548)
-0.211	2.64	-0.0224	-0.174	-0.316	DUS4L (GeneID 11062)
0.271	2.29	0.346	0.285	0.263	PI15 (GeneID 51050)
-0.961	1.77	-0.925	-0.807	-0.906	NUDT5 (GeneID 11164)
0.569	0.999	0.657	0.527	0.383	HSF1 (GeneID 3297)
0.774	0.78	0.821	0.862	0.705	PODXL (GeneID 5420)
0.258	0.787	-0.0435	0.281	0.654	PHF20L1 (GeneID 51105)
-0.233	2.07	-0.299	-0.598	-0.304	ERGIC1 (GeneID 57222)
-0.755	3.63	-0.668	-0.797	-0.551	ANGEL1 (GeneID 23357)
-0.531	2.39	-0.379	-0.553	-0.521	CACNA1G (GeneID 8913)
0.674	1.2	0.641	0.66	0.653	FAM124B (GeneID 79843)
0.131	2.05	0.0864	-0.0496	0.159	RFX7 (GeneID 64864)
-0.337	2.19	-0.42	-0.273	-0.358	STRIP2 (GeneID 57464)
0.0783	1.42	0.233	0.0801	-0.275	TUBB4B (GeneID 10383)
-0.114	3.01	-0.0417	-0.153	-0.395	VCF1 (GeneID 84923)
0.784	1.3	0.463	0.747	0.825	NOS3 (GeneID 4846)

4 neighbouring reagents from above, quoted:
mean correlation with KSR1 profile	mean distance from KSR1 profile	KSR1 correlation, replicate 1	KSR1 correlation, replicate 2	KSR1 correlation, replicate 3	target
-0.381	1.87	-0.522	-0.32	-0.303	RAD52 (GeneID 5893)
0.252	2.06	0.269	0.239	0.181	CYP3A7 (GeneID 1551)
0.131	2.56	0.342	-0.00678	0.0458	CD226 (GeneID 10666)
0.134	1.53	-0.161	0.407	-0.0462	RUNX1T1 (GeneID 862)
